Experimental data taken from PMC5996148.
The other results are listed elsewhere or left out.

Key:
Test in all cases: protein microarray (ProtoArray v5.0), streptavidin-Alexa Fluor 647
Settings in all cases: 3'-biotin; 20 mM Tris (pH 7.5), 5 mM MgCl2, 100 mM KCl, 0.1% Tween-20, A/T-rich and random oligonucleotide blockers; temperature not stated; high values mean tight binding
[1] = system: cAMP-dependent protein kinase type I-beta regulatory subunit (human)
[2] = system: cAMP-dependent protein kinase type II-beta regulatory subunit (human)
[3] = system: cDNA FLJ30744 fis, clone FEBRA2000378. (human)
[4] = system: cDNA clone IMAGE:2906290, complete cds (human)
[5] = system: cDNA clone IMAGE:3949276, partial cds (human)
[6] = system: cDNA clone IMAGE:4292790 (human)
[7] = system: cDNA clone IMAGE:4396549 (human)
[8] = system: cDNA clone IMAGE:4903661, complete cds (human)
[9] = system: cDNA clone IMAGE:5263629 (human)
[10] = system: cDNA clone MGC:12166 IMAGE:3828551 (human)
[11] = system: cDNA clone MGC:12418 IMAGE:3934658, complete cds (human)
[12] = system: cDNA clone MGC:15478 IMAGE:2967661, complete cds (human)
[13] = system: cDNA clone MGC:16743 IMAGE:4130428 (human)
[14] = system: cDNA clone MGC:17055 IMAGE:4338834 (human)
[15] = system: cDNA clone MGC:23693 IMAGE:4767650 (human)
[16] = system: cDNA clone MGC:25008 IMAGE:4453355, complete cds (human)
[17] = system: cDNA clone MGC:31936 IMAGE:4765518, complete cds (human)
[18] = system: cDNA clone MGC:32654 IMAGE:4701898, complete cds (human)
[19] = system: cDNA clone MGC:34832 IMAGE:5203730 (human)
[20] = system: cDNA clone MGC:40177 IMAGE:5167345, complete cds (human)

GGTGACAGGGGTATGGGGAGGGG [G4-2 biotinylated (Ct1)]
binding signal [1]: -0.393 z-score
binding signal [2]: -0.39 z-score
binding signal [3]: -0.371 z-score
binding signal [4]: -0.393 z-score
binding signal [5]: -0.359 z-score
binding signal [6]: -0.4 z-score
binding signal [7]: -0.395 z-score
binding signal [8]: 3.12 z-score
binding signal [9]: -0.398 z-score
binding signal [10]: -0.361 z-score
binding signal [11]: -0.387 z-score
binding signal [12]: -0.388 z-score
binding signal [13]: -0.382 z-score
binding signal [14]: -0.385 z-score
binding signal [15]: -0.385 z-score
binding signal [16]: -0.385 z-score
binding signal [17]: -0.387 z-score
binding signal [18]: -0.4 z-score
binding signal [19]: -0.38 z-score
binding signal [20]: -0.377 z-score
